# The supplement of paper PMC8728848
# The list shows a part of the results.
# How the values were obtained:
# Test in all cases: glycan array binding signal (z-score within array); higher = stronger binding
# Conditions in all cases: glycan notation: IUPAC condensed, linker removed
# [1] = target: Gal(b1-4)GlcNAc(b1-3)Gal(b1-4)GlcNAc(b1-2)Man(a1-3)[Gal(b1-4)GlcNAc(b1-3)Gal(b1-4)GlcNAc(b1-2)Man(a1-6)]Man(b1-4)GlcNAc(b1-4)[Fuc(a1-6)]GlcNAc
# Outline: (§1)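 From the Consortium for Functional Glycomics database, 3228 arrays were curated, keeping only those whose protein sequence was available. Binding is given as a within-array Z-score averaged across arrays sharing a protein sequence and across linkers. Negative Z-scores can be read as non-binding.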
# [2] = target: Gal(b1-4)GlcNAc(b1-3)Gal(b1-4)GlcNAc(b1-2)[Gal(b1-4)GlcNAc(b1-3)Gal(b1-4)GlcNAc(b1-6)]Man(a1-6)[Gal(b1-4)GlcNAc(b1-3)Gal(b1-4)GlcNAc(b1-2)Man(a1-3)]Man(b1-4)GlcNAc(b1-4)GlcNAc
# Outline: as §1
# [3] = target: Gal(b1-4)GlcNAc(b1-3)Gal(b1-4)GlcNAc(b1-2)[Gal(b1-4)GlcNAc(b1-3)Gal(b1-4)GlcNAc(b1-6)]Man(a1-6)[Gal(b1-4)GlcNAc(b1-3)Gal(b1-4)GlcNAc(b1-2)Man(a1-3)]Man(b1-4)GlcNAc(b1-4)[Fuc(a1-6)]GlcNAc
# Outline: as §1
# [4] = target: Gal(b1-4)GlcNAc(b1-3)Gal(b1-4)GlcNAc(b1-3)Gal(b1-4)GlcNAc
# Outline: as §1
# [5] = target: Gal(b1-4)GlcNAc(b1-3)Gal(b1-4)GlcNAc(b1-3)Gal(b1-4)GlcNAc(b1-2)Man(a1-3)[Gal(b1-4)GlcNAc(b1-3)Gal(b1-4)GlcNAc(b1-3)Gal(b1-4)GlcNAc(b1-2)Man(a1-6)]Man(b1-4)GlcNAc(b1-4)GlcNAc
# Outline: as §1
# [6] = target: Gal(b1-4)GlcNAc(b1-3)Gal(b1-4)GlcNAc(b1-3)Gal(b1-4)GlcNAc(b1-2)Man(a1-3)[Gal(b1-4)GlcNAc(b1-3)Gal(b1-4)GlcNAc(b1-3)Gal(b1-4)GlcNAc(b1-2)Man(a1-6)]Man(b1-4)GlcNAc(b1-4)[Fuc(a1-6)]GlcNAc
# Outline: as §1
# [7] = target: Gal(b1-4)GlcNAc(b1-3)Gal(b1-4)GlcNAc(b1-3)Gal(b1-4)GlcNAc(b1-2)[Gal(b1-4)GlcNAc(b1-3)Gal(b1-4)GlcNAc(b1-3)Gal(b1-4)GlcNAc(b1-6)]Man(a1-6)[Gal(b1-4)GlcNAc(b1-3)Gal(b1-4)GlcNAc(b1-3)Gal(b1-4)GlcNAc(b1-2)Man(a1-3)]Man(b1-4)GlcNAc(b1-4)[Fuc(a1-6)]GlcNAc
# Outline: as §1
# [8] = target: Gal(b1-4)GlcNAc(b1-3)Gal(b1-4)GlcNAc(b1-3)Gal(b1-4)GlcNAc(b1-3)Gal(b1-4)GlcNAc(b1-2)Man(a1-3)[Gal(b1-4)GlcNAc(b1-3)Gal(b1-4)GlcNAc(b1-3)Gal(b1-4)GlcNAc(b1-3)Gal(b1-4)GlcNAc(b1-2)Man(a1-6)]Man(b1-4)GlcNAc(b1-4)GlcNAc
# Outline: as §1
# [9] = target: Gal(b1-4)GlcNAc(b1-3)Gal(b1-4)GlcNAc(b1-3)Gal(b1-4)GlcNAc(b1-3)Gal(b1-4)GlcNAc(b1-2)Man(a1-3)[Gal(b1-4)GlcNAc(b1-3)Gal(b1-4)GlcNAc(b1-3)Gal(b1-4)GlcNAc(b1-3)Gal(b1-4)GlcNAc(b1-2)Man(a1-6)]Man(b1-4)GlcNAc(b1-4)[Fuc(a1-6)]GlcNAc
# Outline: as §1
# [10] = target: Gal(b1-4)GlcNAc(b1-3)Gal(b1-4)GlcNAc(b1-3)Gal(b1-4)GlcNAc(b1-3)Gal(b1-4)GlcNAc(b1-2)[Gal(b1-4)GlcNAc(b1-3)Gal(b1-4)GlcNAc(b1-3)Gal(b1-4)GlcNAc(b1-3)Gal(b1-4)GlcNAc(b1-6)]Man(a1-6)[Gal(b1-4)GlcNAc(b1-3)Gal(b1-4)GlcNAc(b1-3)Gal(b1-4)GlcNAc(b1-3)Gal(b1-4)GlcNAc(b1-2)Man(a1-3)]Man(b1-4)GlcNAc(b1-4)[Fuc(a1-6)]GlcNAc
# Outline: as §1
# [11] = target: Gal(b1-4)GlcNAc(b1-3)Gal(b1-4)GlcNAc(b1-3)Gal(b1-4)GlcNAc(b1-3)Gal(b1-4)GlcNAc(b1-3)Gal(b1-4)GlcNAc(b1-2)Man(a1-3)[Gal(b1-4)GlcNAc(b1-3)Gal(b1-4)GlcNAc(b1-3)Gal(b1-4)GlcNAc(b1-3)Gal(b1-4)GlcNAc(b1-3)Gal(b1-4)GlcNAc(b1-2)Man(a1-6)]Man(b1-4)GlcNAc(b1-4)GlcNAc
# Outline: as §1
# [12] = target: Gal(b1-4)GlcNAc(b1-3)Gal(b1-4)GlcNAc(b1-3)Gal(b1-4)GlcNAc(b1-3)Gal(b1-4)GlcNAc(b1-3)Gal(b1-4)GlcNAc(b1-2)Man(a1-3)[Gal(b1-4)GlcNAc(b1-3)Gal(b1-4)GlcNAc(b1-3)Gal(b1-4)GlcNAc(b1-3)Gal(b1-4)GlcNAc(b1-3)Gal(b1-4)GlcNAc(b1-2)Man(a1-6)]Man(b1-4)GlcNAc(b1-4)[Fuc(a1-6)]GlcNAc
# Outline: as §1
# [13] = target: Gal(b1-4)GlcNAc(b1-3)Gal(b1-4)GlcNAc(b1-3)Gal(b1-4)GlcNAc(b1-3)Gal(b1-4)GlcNAc(b1-3)Gal(b1-4)GlcNAc(b1-2)[Gal(b1-4)GlcNAc(b1-3)Gal(b1-4)GlcNAc(b1-3)Gal(b1-4)GlcNAc(b1-3)Gal(b1-4)GlcNAc(b1-3)Gal(b1-4)GlcNAc(b1-6)]Man(a1-6)[Gal(b1-4)GlcNAc(b1-3)Gal(b1-4)GlcNAc(b1-3)Gal(b1-4)GlcNAc(b1-3)Gal(b1-4)GlcNAc(b1-3)Gal(b1-4)GlcNAc(b1-2)Man(a1-3)]Man(b1-4)GlcNAc(b1-4)[Fuc(a1-6)]GlcNAc
# Outline: as §1
# [14] = target: Gal(b1-4)GlcNAc(b1-3)Gal(b1-4)GlcNAc(b1-3)Gal(b1-4)GlcNAc(b1-3)Gal(b1-4)GlcNAc(b1-3)Gal(b1-4)GlcNAc(b1-3)Gal(b1-4)GlcNAc(b1-2)Man(a1-3)[Gal(b1-4)GlcNAc(b1-3)Gal(b1-4)GlcNAc(b1-3)Gal(b1-4)GlcNAc(b1-3)Gal(b1-4)GlcNAc(b1-3)Gal(b1-4)GlcNAc(b1-3)Gal(b1-4)GlcNAc(b1-2)Man(a1-6)]Man(b1-4)GlcNAc(b1-4)GlcNAc
# Outline: as §1
# [15] = target: Gal(b1-4)GlcNAc(b1-3)Gal(b1-4)GlcNAc(b1-3)GalNAc
# Outline: as §1
# [16] = target: Gal(b1-4)GlcNAc(b1-3)Gal(b1-4)GlcNAc(b1-3)[Gal(b1-4)GlcNAc(b1-3)Gal(b1-4)GlcNAc(b1-6)]GalNAc
# Outline: as §1
# [17] = target: Gal(b1-4)GlcNAc(b1-3)Gal(b1-4)GlcNAc(b1-6)[Gal(b1-3)]GalNAc
# Outline: as §1
# [18] = target: Gal(b1-4)GlcNAc(b1-3)Gal(b1-4)[Fuc(a1-3)]GlcNAc(b1-3)Gal(b1-4)[Fuc(a1-3)]GlcNAc
# Outline: as §1
# [19] = target: Gal(b1-4)GlcNAc(b1-3)GalNAc
# Outline: as §1
# [20] = target: Gal(b1-4)GlcNAc(b1-3)[Fuc(a1-3)GlcNAc(b1-6)]Gal(b1-4)Glc
# Outline: as §1
# [21] = target: Gal(b1-4)GlcNAc(b1-3)[Gal(b1-4)GlcNAc(b1-6)]Gal(b1-4)GlcNAc
# Outline: as §1
# [22] = target: Gal(b1-4)GlcNAc(b1-3)[GlcNAc(b1-6)]Gal(b1-4)GlcNAc
# Outline: as §1
# [23] = target: Gal(b1-4)GlcNAc(b1-6)Gal(b1-4)GlcNAc
# Outline: as §1
# [24] = target: Gal(b1-4)GlcNAc(b1-6)GalNAc
# Outline: as §1
# [25] = target: Gal(b1-4)GlcNAc(b1-6)[Gal(b1-3)]GalNAc
# Outline: as §1
# [26] = target: Gal(b1-4)GlcNAc(b1-6)[Gal(b1-4)GlcNAc(b1-3)]GalNAc
# Outline: as §1
# Gal(b1-4)GlcNAc6P = target: Gal(b1-4)GlcNAc6P
# Outline: as §1
# Gal(b1-6)Gal = target: Gal(b1-6)Gal
# Outline: as §1
# Gal3S(b1-3)GalNAc = target: Gal3S(b1-3)GalNAc
# Outline: as §1
# Gal3S(b1-3)GlcNAc = target: Gal3S(b1-3)GlcNAc
# Outline: as §1
# [27] = target: Gal3S(b1-3)[Fuc(a1-4)]GlcNAc
# Outline: as §1
# Gal3S(b1-4)Glc = target: Gal3S(b1-4)Glc
# Outline: as §1
# Gal3S(b1-4)Glc6S = target: Gal3S(b1-4)Glc6S
# Outline: as §1
# Gal3S(b1-4)GlcNAc = target: Gal3S(b1-4)GlcNAc
# Outline: as §1
# [28] = target: Gal3S(b1-4)[Fuc(a1-3)]Glc6S
# Outline: as §1
# [29] = target: Gal3S(b1-4)[Fuc(a1-3)]GlcNAc
# Outline: as §1
# [30] = target: Gal3S(b1-4)[Fuc(a1-3)]GlcNAc6S
# Outline: as §1
binder,measurement,setting,value
SabA (Helicobacter pylori) (protein) MGSSHHHHHHSSGLVPRGSHMENLYFQGEDNGFFVSAGYQIGEAVQMVKNTGELKNLNEKYEQLSQYLNQVASLKQSIQNANNIELVNSSLNYLKSFTNNNYNSTTQSPIFNAVQAVITSVLGFWSLYAGNYFTFFVGKKVGDSGQPASVQGNPPFKTIIENCSGIENCAMDQTTYDKMKKLAEDLQAAQTNSATKGNNLCALSGCAATDSTSNPPNSTVSNALNLAQQLMDLIANTKTAMMWKNIVISGVSNTSGAITSTNYPTQYAVFNNIKAMIPILQQAVTLSQSNHTLSASLQAQATGSQTNPKFAKDIYTFAQNQKQVISYAQDIFNLFNSIPAEQYKYLEKAYLKIPNAGSTPTNPYRQVVNLNQEVQTIKNNVSYYGNRVDAALSVARDVYNLKSNQAEIVTAYNDAKTLSEEISKLPHNQVNTKDIVTLPYDKNAPAAGQSNYQINPEQQSNLNQALAAMSNNPFKKVGMISSQNNNGA,glycan array binding signal (z-score),[1],1.16
same,glycan array binding signal (z-score),[2],2.39
same,glycan array binding signal (z-score),[3],-0.252
same,glycan array binding signal (z-score),[4],-0.068
same,glycan array binding signal (z-score),[5],1.21
same,glycan array binding signal (z-score),[6],-0.537
same,glycan array binding signal (z-score),[7],0.386
same,glycan array binding signal (z-score),[8],-0.485
same,glycan array binding signal (z-score),[9],0.132
same,glycan array binding signal (z-score),[10],-0.093
same,glycan array binding signal (z-score),[11],0.398
same,glycan array binding signal (z-score),[12],0.033
same,glycan array binding signal (z-score),[13],-0.103
same,glycan array binding signal (z-score),[14],0.175
same,glycan array binding signal (z-score),[15],0.108
same,glycan array binding signal (z-score),[16],-0.093
same,glycan array binding signal (z-score),[17],-0.494
same,glycan array binding signal (z-score),[18],-0.766
same,glycan array binding signal (z-score),[19],-0.706
same,glycan array binding signal (z-score),[20],-0.526
same,glycan array binding signal (z-score),[21],0.403
same,glycan array binding signal (z-score),[22],-0.202
same,glycan array binding signal (z-score),[23],-0.42
same,glycan array binding signal (z-score),[24],0.556
same,glycan array binding signal (z-score),[25],-0.47
same,glycan array binding signal (z-score),[26],0.063
same,glycan array binding signal (z-score),Gal(b1-4)GlcNAc6P,-0.913
same,glycan array binding signal (z-score),Gal(b1-6)Gal,0.44
same,glycan array binding signal (z-score),Gal3S(b1-3)GalNAc,-0.071
same,glycan array binding signal (z-score),Gal3S(b1-3)GlcNAc,-0.212
same,glycan array binding signal (z-score),[27],0.112
same,glycan array binding signal (z-score),Gal3S(b1-4)Glc,-0.46
same,glycan array binding signal (z-score),Gal3S(b1-4)Glc6S,0.056
same,glycan array binding signal (z-score),Gal3S(b1-4)GlcNAc,0.24
same,glycan array binding signal (z-score),[28],1.23
same,glycan array binding signal (z-score),[29],0.298
same,glycan array binding signal (z-score),[30],0.398

# An excerpt taken from the entries so far:
binder,measurement,setting,value
SabA (Helicobacter pylori) (protein) MGSSHHHHHHSSGLVPRGSHMENLYFQGEDNGFFVSAGYQIGEAVQMVKNTGELKNLNEKYEQLSQYLNQVASLKQSIQNANNIELVNSSLNYLKSFTNNNYNSTTQSPIFNAVQAVITSVLGFWSLYAGNYFTFFVGKKVGDSGQPASVQGNPPFKTIIENCSGIENCAMDQTTYDKMKKLAEDLQAAQTNSATKGNNLCALSGCAATDSTSNPPNSTVSNALNLAQQLMDLIANTKTAMMWKNIVISGVSNTSGAITSTNYPTQYAVFNNIKAMIPILQQAVTLSQSNHTLSASLQAQATGSQTNPKFAKDIYTFAQNQKQVISYAQDIFNLFNSIPAEQYKYLEKAYLKIPNAGSTPTNPYRQVVNLNQEVQTIKNNVSYYGNRVDAALSVARDVYNLKSNQAEIVTAYNDAKTLSEEISKLPHNQVNTKDIVTLPYDKNAPAAGQSNYQINPEQQSNLNQALAAMSNNPFKKVGMISSQNNNGA,glycan array binding signal (z-score),[19],-0.706
same,glycan array binding signal (z-score),[20],-0.526
